# Test results published in PubChem BioAssay AID493014 (National Center for Advancing Translational Sciences (NCATS), 2011).
# Among all 340,000 compounds or so, about 170 (0.05%) were called active. Inconclusive means that the source gave no clear call. Such entries were picked first, then a sample of the others. Calls follow the shape of the dose curve; as a rule, active = well fitted inhibition curve with a large enough effect in the signal ratio, with a control signal flat (not every such curve was filed as active); inconclusive = small, poorly fitted or top-dose-only effect, or effect the other way, or a change in a side signal; inactive = flat fitted curve, though single readings scatter; the % refers to the signal ratio. A potency beside an inconclusive call is a rough fit, not a confirmed value.
# Test: qHTS Assay to Find Inhibitors of Chronic Active B-Cell Receptor Signaling;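 as to activity change, negative = inhibition: plate controls were basal doxycycline-induced cells for no effect and cells given 10 µM MG132 for full effect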
# Settings: ABC-DLBCL IkBa-CBG/CBR reporter, luminescence ratio (green luciferase fused to IkBa over red control in TMD8 lymphoma cells), 4 h; activity change, negative = inhibition: at 46.1 µM (top of the series)
# In short: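 Concentration-response series (up to 46 uM) were applied to TMD8 dual-reporter cells for 4 h at 37C with doxycycline. Green/red ratio, after filter-overlap correction, defined %Activity; red signal alone was normalised to basal cells and zero luminescence.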
# Potency is read from the fitted curve at half-maximal effect.
SMILES,"activity change, negative = inhibition",Potency
CN1C(=O)c2cccc(NCCCCCCN3C(=O)c4ccccc4C3=O)c2C1=O,inconclusive: 7.04%,–
O=C(Cn1c(=O)n(Cc2ccccc2)c(=O)c2ccccc21)NCc1ccco1,inconclusive: 4.3%,–
FC(F)(F)c1cccc(Sc2cc(C(F)(F)F)nc(-c3ccccn3)n2)c1,inconclusive: -2.4%,–
COc1ccc(Cc2noc(CN3CCN(Cc4cccc(Cl)c4)CC3)n2)cc1OC,inconclusive: -18.6%,–
CC(=O)Nc1ccc(C(=O)OCC(=O)NCc2ccc(Cl)cc2)cc1,inactive,–
CCc1cc2c(SCC(=O)N3CC(=O)Nc4ccccc43)ncnc2s1,inconclusive: 0.0869%,–
CCOc1ccccc1OCC(=O)Nc1ccc(N2CCOCC2)cc1N1CCOCC1,inconclusive: -5.84%,–
O=C(COc1ccc(S(=O)(=O)NCc2ccccc2)cc1)N1CCOCC1,inconclusive: 1.58%,–
CCCN(CCC)C(=O)CC(c1ccc(F)cc1)c1ccco1 (stereo not given),inconclusive: -4.05%,–
O=C(NC(=S)Nc1ccc2ncccc2c1)c1ccccc1,–,"inconclusive: 35.5 µM [rising, single point]"
CCc1c(C)[nH]c2nc3ccccc3n2c1=O,–,"inconclusive: 0.651 µM [rising, full curve]"
CCCn1c(C(C)Nc2nc(-c3ccc(Cl)c([N+](=O)[O-])c3)cs2)nc2ccccc21 (stereo not given),inactive,–
CSc1ccccc1OCc1cc(C(=O)NCCc2ccco2)no1,inactive,–
CCOc1ccc(C(=O)/C=C/Nc2ccc(S(=O)(=O)N=C(N)N)cc2)cc1,inconclusive: 8.77%,–
Cc1ccc2c(C)nc(Nc3nc(CSc4nnnn4-c4ccccc4)cc(=O)[nH]3)nc2c1,inactive,–
Nc1cc(N2CCCC2)ccc1[N+](=O)[O-],–,"inconclusive: 4.47 µM [falling, partial curve]"
COc1ccc(C(=O)CN2C(=O)NC3(CCCc4ccccc43)C2=O)cc1 (stereo not given),–,"inconclusive: 4.61 µM [falling, partial curve, poor fit]"
CCN1CCN(c2ccc(NC(=O)c3ccc4c(c3)[nH]c(=O)n4Cc3ccc(F)cc3)cc2)CC1,–,"inconclusive: 16.4 µM [falling, single point]"
CCCNCC1C(Oc2ccc(Cl)cc2Cl)C(=O)N1c1cccc(C)c1C (stereo not given),inconclusive: -5.04%,–
CN(Cc1ccc(Cl)c(Cl)c1)C(=O)C1=CC=CN2CCS(=O)(=O)N=C12,inactive,–
CSC1=N/C(=C\c2ccccc2)C(=O)N1C,–,"inconclusive: 35.5 µM [falling, single point]"
CSc1nc2[nH]c3c(c2c2nnnn12)CCCC3,inconclusive: -0.164%,–
Cc1cc2ccccn2c1C(=O)c1ccc(Cl)cc1,inactive,–
CCOc1ccc(NS(=O)(=O)c2ccc3c(c2)CCN3C(=O)C2CCC2)cc1,inconclusive: 0.22%,–
CCCn1c(SCC(=O)N2CCN(C(=O)c3ccco3)CC2)nc2ccccc2c1=O,inconclusive: 4.32%,–
C=CCn1c(O)c(N=NC(=S)Nc2ccc(OC)cc2)c2ccccc21,inconclusive: -2.7%,–
Cc1ccc(NC(=O)CNC(=O)c2cccs2)c(O)c1,–,"inconclusive: 18.4 µM [falling, partial curve]"

# Some of these compounds in order of SMILES length, ascending:
SMILES,"activity change, negative = inhibition",Potency
CSC1=N/C(=C\c2ccccc2)C(=O)N1C,–,"inconclusive: 35.5 µM [falling, single point]"
Nc1cc(N2CCCC2)ccc1[N+](=O)[O-],–,"inconclusive: 4.47 µM [falling, partial curve]"
CSc1nc2[nH]c3c(c2c2nnnn12)CCCC3,inconclusive: -0.164%,–
Cc1ccc(NC(=O)CNC(=O)c2cccs2)c(O)c1,–,"inconclusive: 18.4 µM [falling, partial curve]"
CSc1ccccc1OCc1cc(C(=O)NCCc2ccco2)no1,inactive,–
CCc1cc2c(SCC(=O)N3CC(=O)Nc4ccccc43)ncnc2s1,inconclusive: 0.0869%,–
CC(=O)Nc1ccc(C(=O)OCC(=O)NCc2ccc(Cl)cc2)cc1,inactive,–
CCCNCC1C(Oc2ccc(Cl)cc2Cl)C(=O)N1c1cccc(C)c1C (stereo not given),inconclusive: -5.04%,–
CCOc1ccccc1OCC(=O)Nc1ccc(N2CCOCC2)cc1N1CCOCC1,inconclusive: -5.84%,–
COc1ccc(C(=O)CN2C(=O)NC3(CCCc4ccccc43)C2=O)cc1 (stereo not given),–,"inconclusive: 4.61 µM [falling, partial curve, poor fit]"
COc1ccc(Cc2noc(CN3CCN(Cc4cccc(Cl)c4)CC3)n2)cc1OC,inconclusive: -18.6%,–
CCOc1ccc(NS(=O)(=O)c2ccc3c(c2)CCN3C(=O)C2CCC2)cc1,inconclusive: 0.22%,–
CCCn1c(SCC(=O)N2CCN(C(=O)c3ccco3)CC2)nc2ccccc2c1=O,inconclusive: 4.32%,–
CN(Cc1ccc(Cl)c(Cl)c1)C(=O)C1=CC=CN2CCS(=O)(=O)N=C12,inactive,–
Cc1ccc2c(C)nc(Nc3nc(CSc4nnnn4-c4ccccc4)cc(=O)[nH]3)nc2c1,inactive,–
CCCn1c(C(C)Nc2nc(-c3ccc(Cl)c([N+](=O)[O-])c3)cs2)nc2ccccc21 (stereo not given),inactive,–
CCN1CCN(c2ccc(NC(=O)c3ccc4c(c3)[nH]c(=O)n4Cc3ccc(F)cc3)cc2)CC1,–,"inconclusive: 16.4 µM [falling, single point]"

# Following part

SMILES,"activity change, negative = inhibition",Potency
N#Cc1ccc(N2CCN(c3ccc(F)cc3)CC2)cc1,inconclusive: 13.4%,–
Cc1cccc(NC(=O)c2ccc(C(=O)c3ccccc3)cc2)n1,inconclusive: 1.65%,–
CC(=O)Cn1ncc(Br)c(Br)c1=O,inconclusive: 12.4%,–
Cc1ccccc1-c1nc(Cc2ccc(Cl)cc2)no1,–,"inconclusive: 13 µM [rising, partial curve, poor fit]"
CN1/C(=C\C(=O)c2cccc([N+](=O)[O-])c2)Sc2ccccc21,inconclusive: 3.08%,–
CCCc1cc(-c2nc(N)ncc2-c2csc(C)n2)c(O)cc1OC,inactive,–
CCN1CCN(C(=O)c2cc3ccc(OC)cc3[nH]2)CC1,inconclusive: -0.365%,–
Cc1cccc(N2CCN(C(=O)c3ccc(Cl)c(S(=O)(=O)NCc4ccco4)c3)CC2)c1C,inactive,–
COc1cc(C(=O)N(Cc2ccc(N(C)C)cc2)C2CCS(=O)(=O)C2)cc(OC)c1OC (stereo not given),inconclusive: 0.177%,–
COc1cc(C(=O)OCC(=O)c2c[nH]c3ccccc23)ccc1OCC(=O)N1CCOCC1,inconclusive: -2.57%,–
COc1ccc(/C(N)=N/OC(=O)c2ccc(Br)o2)cc1,inconclusive: 7.52%,–
COc1cc(/C=C/c2ccc3cccc(O)c3n2)cc(OC)c1OC,–,"inconclusive: 12.6 µM [falling, partial curve]"
Nc1nnc(CC(=O)N/N=C/c2ccc(-c3ccccc3Cl)o2)s1,inconclusive: -0.263%,–
COc1cccc(C(=O)Nc2cccc(-c3nnc(-c4ccco4)o3)c2)c1,inconclusive: -1.22%,–
CCn1c(SCC(=O)Nc2oc(C)c3c(C)n[nH]c(=O)c23)nc2sc(C)c(C)c2c1=O,inconclusive: -10.5%,–
CCC(C)N(C(=O)COC(=O)c1cn(CC)c2nc(C)ccc2c1=O)C1CCS(=O)(=O)C1 (stereo not given),inconclusive: 1.68%,–
CN(C)CCSc1nnc2[nH]c3ccccc3c2n1,–,"inconclusive: 5.17 µM [falling, partial curve]"
O=C(COC(=O)C1CC2C=CC1C2)Nc1cccc(S(=O)(=O)N2CCOCC2)c1 (stereo not given),–,"inconclusive: 35.5 µM [falling, single point]"
CC(C)OCCCNC(=O)COc1ccc2oc3c(c2c1)CCCC3,inconclusive: 1.51%,–
COc1cccc(NC(=S)N(CCc2c(C)[nH]c3ccccc23)Cc2ccco2)c1,inconclusive: -7.46%,–
Cc1cc(NS(=O)(=O)c2ccc(NC(=O)COc3ccc(C#N)cc3)cc2)nc(C)n1,inactive,–
CCOC(=O)c1c(C)nc2c(c1C)c(=O)oc1ccccc12,inconclusive: 21.2%,–
CC(=O)c1ccc(OCc2cc(C(=O)N(C)Cc3ncc(C)[nH]3)no2)cc1,inconclusive: -6.37%,–
COc1cccc(OC)c1OCCCCN1CCCC1,inactive,–
Cc1cccc(N/C(N)=N/c2nc(C)c(Cc3ccccc3)c(=O)[nH]2)c1,inconclusive: 7.29%,–
CN(C)CCCN=c1cc(-c2ccccc2)oc2ccc(Cl)cc12,inconclusive: 11.7%,–
O=C(CCCCCn1c(=S)[nH]c2ccccc2c1=O)N1CCOCC1,inconclusive: -8.67%,–

SMILES,"activity change, negative = inhibition",Potency
COc1ccc(/C=N/Nc2cc(C)nc(-n3nc(C)cc3C)n2)cc1,inconclusive: -19.3%,–
Cc1cccc(OCC(=O)NCCCNC(=O)c2ccco2)c1,inconclusive: -14.3%,–
CC1=NN(C(=O)c2ccccc2Cl)C(O)(c2ccccc2)C1 (stereo not given),–,"inconclusive: 2.51 µM [falling, full curve]"
CCOc1cc(/C=N/NC(=O)c2ccccc2OCc2ccc(F)cc2)ccc1O,–,"inconclusive: 0.58 µM [falling, full curve]"
c1ccc(-c2noc(-c3ccc4c(c3)OCO4)n2)cc1,–,"inconclusive: 2.82 µM [falling, full curve, poor fit]"
CC1(C(=O)OCC(=O)Nc2cccc(S(=O)(=O)NC3=NCCCCC3)c2)CC1(Cl)Cl (stereo not given),inconclusive: -11.6%,–
COCCn1c(=S)[nH]c2sc3c(c2c1=O)CCCC3,inconclusive: 12%,–
CC1(C)CC(NC(=O)C(c2ccccc2)c2ccccc2)CC(C)(C)N1,inactive,–
O=C(Nc1cc(=O)[nH]c(=O)[nH]1)c1cccc(Br)c1,–,"inconclusive: 31.6 µM [falling, single point]"
C=CCc1cc(C=O)cc(OC)c1OCc1ccc(Cl)cc1,inconclusive: 19.9%,–
O=S(=O)(NCCCCNS(=O)(=O)c1c(F)cccc1F)c1ccc2c(c1)OCCO2,inconclusive: 2.52%,–
C=CC[C@H](CC(=O)N(CCO)Cc1ccccc1)C(=O)N[C@H](COC(=O)[C@@H](CC=C)Cc1ccc(F)cc1)C(C)(C)C,inconclusive: -4.14%,–
NC(=O)[C@@H]1[C@@H]2C(=O)N(c3ccc(F)cc3)C(=O)[C@@H]2[C@H]2C=Cc3ccccc3N21,inconclusive: -3.13%,–
CCO/C=C/C(O)(CNC(=O)c1ccc(C(C)(C)C)cc1)C(F)(F)F (stereo not given),inconclusive: 9.61%,–
COc1ccc(CCN(C)Cc2c(O)ccc3cc(Br)ccc23)cc1OC,inconclusive: -13.4%,–
O=C(COc1ccc2c(c1)OCO2)Nc1nccs1,–,"inconclusive: 17.8 µM [falling, single point]"
C/C(=N\Nc1ccccc1)c1cc2ccccc2oc1=O,inconclusive: 0.449%,–
COc1cc(/C=C/c2ccc3cccc(O)c3n2)c(Br)cc1O,–,"inconclusive: 35.5 µM [falling, single point]"
COc1ccc(-c2noc(CN(C(=O)c3ccc(OC(C)=O)cc3)C(C)C)n2)cc1OC,inconclusive: 4.89%,–
Cc1ccccc1/C=C/c1nc2ccccc2c(=O)[nH]1,inconclusive: -14.5%,–
Cc1cccc(CN2CCN(C(=O)c3ccccc3F)CC2)c1,inactive,–
C[C@@H]1CN([C@H](C)CO)C(=O)Cc2cc(NC(=O)CCC(F)(F)F)ccc2O[C@@H]1CN(C)C(=O)Nc1ccccc1,inconclusive: 3.03%,–
CCCCN(C)C(=O)c1cccc(OC2CCN(CC(C)(C)C)CC2)c1,inconclusive: 0.461%,–
O=S(=O)(/N=C(/Nc1cc(N2CCOCC2)ncn1)c1ccc(F)cc1)c1ccccc1,inconclusive: -1.24%,–
O=C(CC12CC3CC(CC(C3)C1)C2)Nc1ccccc1N1CCOCC1,inconclusive: 3.81%,–
COc1cccc(/C=N/NC(=O)c2ccccc2NC(=O)c2ccco2)c1OC,–,"inconclusive: 7.08 µM [falling, full curve]"

# A different layout for part of the listing above.
SMILES	activity change, negative = inhibition	Potency
O=C(Nc1cc(=O)[nH]c(=O)[nH]1)c1cccc(Br)c1	–	inconclusive: 31.6 µM [falling, single point]
C=CCc1cc(C=O)cc(OC)c1OCc1ccc(Cl)cc1	inconclusive: 19.9%	–
